Measured values reported in PubChem BioAssay AID504467 (National Center for Advancing Translational Sciences (NCATS), 2011).
The whole screen tested about 330,000 compounds, of which about 7,700 (2.3%) were called active. The shares of active, inactive and inconclusive entries below differ from those in the screen. Calls come from the whole dose curve; as a rule, active = well fitted inhibition curve with a large enough effect; inconclusive = small, poorly fitted or top-dose-only effect, or effect the other way; inactive = flat fitted curve, though single readings scatter. Potencies beside an inconclusive call are fits to weak or partial responses and may not hold up.

Test: qHTS screen for small molecules that inhibit ELG1-dependent DNA repair in human embryonic kidney (HEK293T) cells expressing luciferase-tagged ELG1; note: nearly all actives have a fitted effect of over 55% in size
Settings: HEK293T ELG1-luciferase reporter, luminescence, 16 h, DNA damage induced by 5-fluorouridine; series mostly up to 46.1 µM
Method in brief: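 DMSO vehicle served as the neutral condition. Each well held 2,000 cells given 5-fluorouridine plus compound; after 16 hr at 37 °C/5% CO2, ONE-Glo was added and luciferase measured 30 min later.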
Potency is the fitted concentration of half-maximal effect.

SMILES | Potency
CCNC(=O)NC(=O)COC(=O)CCCSc1nc2ccccc2s1 | inactive
CC(C)(C)NC(=O)N1CCN(c2ncccc2C(F)(F)F)CC1 | inactive
COCCNc1oc(-c2ccccc2Cl)nc1C#N | inconclusive: 20.6 µM [activator, single point]
COc1cc(NC(=O)CN(c2ccc(C)cc2)S(=O)(=O)c2c(C)nn(C)c2C)cc(OC)c1 | inconclusive: 20.6 µM [inhibitor, partial curve, poor fit]
CCOC(=O)c1ccccc1NC(=O)COC(=O)c1cc([N+](=O)[O-])ccc1N1CCOCC1 | inconclusive: 11.6 µM [inhibitor, single point]
CC(OC(=O)c1ccc(NC(=O)CC#N)cc1)C(=O)NC(c1ccccc1)c1ccccc1 (stereo not given) | inactive
CCc1[nH]nc2c1C(C(C)C)C(C#N)=C(N)O2 (stereo not given) | inactive
COc1ccc(-c2nc3ccccc3n2CCC(C)C)cc1OC | inconclusive: 29.1 µM [inhibitor, single point]
CC(C)(C)c1cc(NC(=O)c2ccco2)no1 | inconclusive: 4.11 µM [activator, full curve]
Cc1cc(C)nc(NS(=O)(=O)c2ccccc2)n1 | inactive
CS(=O)(=O)N1CCC(C(=O)N2CCN(c3cccc(Cl)c3)CC2)CC1 | inactive
COc1ccccc1-c1ccc(C(=O)O)o1 | inconclusive: 25.9 µM [activator, single point]
O=C(NCc1ccccc1)c1cccc(COc2cccc(Cl)c2)c1 | inconclusive: 20.6 µM [activator, single point]
c1coc(CNc2ncnc3sc4c(c23)CCCCC4)c1 | inconclusive: 18.4 µM [inhibitor, partial curve, poor fit]
CCn1nc(C(=O)Nc2ccc(S(=O)(=O)Nc3ncccn3)cc2)c2ccccc2c1=O | inconclusive: 10.3 µM [activator, partial curve]
Cc1nc2c(c(=O)n1CCC1=CCCCC1)c1nc3ccccc3nc1n2/N=C/c1ccccc1 | inconclusive: 4.11 µM [inhibitor, full curve]
COC(=O)c1sccc1NC(=O)/C=C/c1ccc(Cl)cc1 | inconclusive: 10.3 µM [activator, partial curve]
CCCCOC(=O)CSC1=C(C#N)C(c2ccc3c(c2)OCO3)CC(=O)N1 (stereo not given) | inconclusive: 23.1 µM [inhibitor, single point]
O=C(c1cc([N+](=O)[O-])ccc1Cl)N1CCc2ccccc21 | inactive
Cc1oc(-c2ccccc2F)nc1CS(=O)(=O)CC(=O)N1CCN(Cc2ccccc2)CC1 | inconclusive: 18.4 µM [inhibitor, partial curve]

Already shown: an excerpt of the list.
SMILES | Potency
COc1cc(NC(=O)CN(c2ccc(C)cc2)S(=O)(=O)c2c(C)nn(C)c2C)cc(OC)c1 | inconclusive: 20.6 µM [inhibitor, partial curve, poor fit]
CCOC(=O)c1ccccc1NC(=O)COC(=O)c1cc([N+](=O)[O-])ccc1N1CCOCC1 | inconclusive: 11.6 µM [inhibitor, single point]
CC(OC(=O)c1ccc(NC(=O)CC#N)cc1)C(=O)NC(c1ccccc1)c1ccccc1 (stereo not given) | inactive
CCc1[nH]nc2c1C(C(C)C)C(C#N)=C(N)O2 (stereo not given) | inactive
COc1ccc(-c2nc3ccccc3n2CCC(C)C)cc1OC | inconclusive: 29.1 µM [inhibitor, single point]
CC(C)(C)c1cc(NC(=O)c2ccco2)no1 | inconclusive: 4.11 µM [activator, full curve]
